Laboratory results published in patent US12139475B2, “2-oxindole compounds” (CHEMOCENTRYX, INC., priority 2016, dated 2024).
At least one structure is not confirmed: it was looked up by name or label, or the drawing left a doubt.

Target: T1, CCR(9) (Homo sapiens, UniProt P51686)
T1 construct: MOLT-4 cells were collected by centrifugation at 400×g at room temperature, then suspended at 50 million/ml in human serum; host or cells: MOLT-4
T1 sequence (P51686 1-369): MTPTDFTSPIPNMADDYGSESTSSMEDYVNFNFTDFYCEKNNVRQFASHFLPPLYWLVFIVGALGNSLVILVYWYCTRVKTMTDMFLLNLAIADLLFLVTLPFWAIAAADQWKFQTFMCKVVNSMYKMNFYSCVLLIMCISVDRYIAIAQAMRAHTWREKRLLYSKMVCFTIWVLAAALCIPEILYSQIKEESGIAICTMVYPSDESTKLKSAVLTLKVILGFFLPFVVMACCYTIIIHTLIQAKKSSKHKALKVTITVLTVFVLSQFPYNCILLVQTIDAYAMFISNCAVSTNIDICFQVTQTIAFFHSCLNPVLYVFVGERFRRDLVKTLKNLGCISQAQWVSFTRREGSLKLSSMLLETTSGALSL
Assay: Serum chemotaxis assay (MOLT-4 cells, TECK-induced migration, ChemoTX)
Format: cell-based
Conditions: MOLT-4 cells in human serum, migration to recombinant human TECK, 90 minutes at 37° C.
Description: MOLT-4 cells were obtained from the American Type Culture Collection (Manassas, VA) and cultured in RPMI tissue culture medium supplemented with 10% fetal calf serum (FCS) in a humidified 5% CO2 incubator at 37° C. Recombinant human chemokine proteins TECK was obtained from R&D Systems (Minneapolis, MN). ChemoTX™ chemotaxis microchambers were purchased from Neuro Probe (Gaithersburg, MD). CyQUANT™ cell proliferation kits were purchased from Molecular Probes (Eugene, Oregon). Calcium indicator dye Fluo-4 AM was purchased from Molecular Devices (Mountain View, CA).
A serum chemotaxis assay was used to determine the efficacy of potential receptor antagonists at blocking the migration mediated through chemokine receptors, such as CCR(9). This assay was performed using the ChemoTX® microchamber system with a 5-μm pore-sized polycarbonate membrane. […] The amount of fluorescence, corresponding to the number of migrated cells, was measured using a Spectrafluor Plus plate reader (TECAN, San Jose, CA).
The A2 values were calculated from the following equation, comparing the efficacy of the test compound with that of the DMSO-only control at equi-active chemokine levels: Log(A2)=log[drug(M)]−log[(A′/A)−1] where A reflects the potency of the agonist in the absence of antagonist and A′ reflects the potency of the agonist in the presence of antagonist at a given concentration of drug ([drug(M)]). […]

Row | SMILES | Chemotaxis A2
1 | Cc1cc(C2(C)C(=O)N(c3cccc(C(=O)O)c3)c3ccc(Cl)cc32)cc2c1OC(C)(C)CC2 (centres unmarked) | +++ (100 nM > A2)
2 | CC1(C)CCc2cc(C3(C)C(=O)N(c4cccc(C(=O)O)c4)c4ccc(Cl)cc43)cc(F)c2O1 (centres unmarked) | +++ (100 nM > A2)
